Assay results taken from paper doi:10.1101/2021.02.08.430253.

Target: CG31030 with a C-terminal V5 tag (CG31030^V5) (Drosophila melanogaster)
Assay: affinity purification with mass spectrometry

B1: ATP6AP2 (V-ATPase accessory subunit, fly homolog of human ATP6AP2/PRR) (protein, UniProt Q9VHG4 18-320)
chain: SGEFTVLNRPKAISFKGNDALESHYVGDVLYASMGNAVSGDTNWNGLTINDPFNLAKGVILVHVQGIGHVTTAGNVKTYELTGSGTDASLNALAAELEAANEPVCDINFEQFDDGVQAWKSCFGDFEAPAAKPTKHLNPSLHTADKQFLQEVGFINSAADHLAEMAKPSNVLMLRVSVDGVAKAHGEKSVAVEEANKLLSAAISRLLAASQKSSDSVLFVQTTEKDVAASRAKRDTIAASTTNPYNLAVYYGSDYPVIFNIILWFMVVFGLSLLAICYAIAAMDPGRDSIIYRMTSTRIKKDN
binding: binds

Results are given in words; binding and its absence hold for the method and conditions named. In cells and extracts the contact can be indirect. These calls come from enrichment with a bait or labelling near it, and not all partners need be listed.
